{
  "sequences": {"note": "Sequences of proteins named here, by UniProt entry; tags and fusion partners are left off.", "UniProt P18054, whole entry, looked up": "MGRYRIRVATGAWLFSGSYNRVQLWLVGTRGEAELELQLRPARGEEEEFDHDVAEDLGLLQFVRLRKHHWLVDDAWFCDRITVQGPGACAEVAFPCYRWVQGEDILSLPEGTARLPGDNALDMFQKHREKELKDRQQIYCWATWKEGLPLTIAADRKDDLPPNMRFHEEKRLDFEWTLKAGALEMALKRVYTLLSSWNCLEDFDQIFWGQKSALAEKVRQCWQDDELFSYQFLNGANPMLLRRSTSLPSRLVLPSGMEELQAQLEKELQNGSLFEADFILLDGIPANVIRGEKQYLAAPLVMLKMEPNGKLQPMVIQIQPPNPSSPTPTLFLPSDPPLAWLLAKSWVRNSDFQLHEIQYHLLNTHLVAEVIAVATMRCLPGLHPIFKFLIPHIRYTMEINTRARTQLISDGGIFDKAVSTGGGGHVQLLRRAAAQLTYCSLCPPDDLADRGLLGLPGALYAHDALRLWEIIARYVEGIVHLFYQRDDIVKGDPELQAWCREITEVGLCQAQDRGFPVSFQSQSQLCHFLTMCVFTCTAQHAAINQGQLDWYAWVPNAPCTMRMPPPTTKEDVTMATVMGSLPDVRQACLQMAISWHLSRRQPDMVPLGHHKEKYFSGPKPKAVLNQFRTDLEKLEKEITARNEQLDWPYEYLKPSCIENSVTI"},
  "source": "PubChem BioAssay AID1671190",
  "about": "(National Center for Advancing Translational Sciences (NCATS), 2021)",
  "note": "The campaign covered roughly 580,000 compounds. About 6,100 (1.1%) were called active. The shares of active, inactive and inconclusive entries below differ from those in the screen. Calls come from the whole dose curve; as a rule, active = well fitted inhibition curve with a large enough effect; inconclusive = small, poorly fitted or top-dose-only effect, or another doubt; inactive = no such curve, though single readings can be large or run the other way. Potencies of inconclusive entries are doubtful fits and often do not repeat. % is set by controls: 0 for no effect and ±100 for the full control effect; potency is the fitted concentration of half-maximal effect.",
  "data": [
    {"molecular_target": "Polyunsaturated fatty acid lipoxygenase ALOX12 (Homo sapiens) (UniProt P18054)", "experiment": "Primary qHTS assay for inhibitors of human arachidonate 12S-lipoxygenase (ALOX12): Round 2", "conditions": "purified 12hLO, xylenol orange hydroperoxide absorbance; activity change, negative = inhibition: at 108 µM (top of the series) unless noted", "method_in_brief": "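Purified human 12hLO at 150 nM in 25 mM Hepes, 0.01% Triton X-100, pH 7.0, preincubated 15 min at room temperature with compound. Reaction started with 40 uM arachidonic acid, 30 min at room temperature. Hydroperoxide measured by Fe-xylenol orange, 573/405 nm absorbance ratio.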", "values": [
      {"smiles": "Cc1ccc(-c2nc3c(Cl)cc(C(F)(F)F)cn3c2Cc2ccccc2C(F)(F)F)cc1", "Potency": "inconclusive: 44.7 µM [inhibitor, partial curve, poor fit]"},
      {"smiles": "CCOc1ccccc1Nc1nc(-c2sc(NC(=O)c3ccco3)nc2C)cs1", "activity change, negative = inhibition": "inactive: -14.5%"},
      {"smiles": "C#CCOCCOCCOCCNc1nc(N2CCOCC2)nc(N2CCN(C(=O)CCCCCCCCCCNC(=O)[C@@H]([C@H](C)CC)n3cc(CCCCCN)nn3)CC2)n1", "Potency": "inconclusive: 22.4 µM [inhibitor, partial curve, poor fit]"},
      {"smiles": "O=C(Cc1cccs1)N/N=C\\c1cccc2ccccc12", "activity change, negative = inhibition": "inactive: -35.7%"},
      {"smiles": "CC1CCN(c2csc3ccc(F)cc3c2=O)CC1", "activity change, negative = inhibition": "inactive: 3.11%"},
      {"smiles": "COc1ccccc1C=NC(CO)C(O)c1ccc([N+](=O)[O-])cc1", "note": "(stereo not drawn)", "activity change, negative = inhibition": "inactive: 16%"},
      {"smiles": "CC(C)N1CCc2c(sc(NC(=O)c3ccc(S(=O)(=O)N(C)C4CCCCC4)cc3)c2C(N)=O)C1", "Potency": "inconclusive: 112 µM [inhibitor, partial curve, poor fit]"},
      {"smiles": "CCOC(=O)c1cc(-c2ccccc2)n(CC(=O)O)c1C", "Potency": "inconclusive: 35.5 µM [inhibitor, partial curve, poor fit]"},
      {"smiles": "COc1ccc2c(c1)CCC/C2=N\\OC(=O)c1cc(SC)ccc1Cl", "activity change, negative = inhibition": "inactive: -8.96%"},
      {"smiles": "CN1C(C(=O)NCc2ccccc2)CC2Cn3c(nc4cc(Cl)c(Cl)cc43)C21", "note": "(stereo not drawn)", "Potency": "inconclusive: 3.98 µM [inhibitor, full curve, poor fit]"},
      {"smiles": "CN(CC(=O)Nc1ccc(S(=O)(=O)N2CCCC2)cc1)Cc1ccc(Cl)cc1Cl", "activity change, negative = inhibition": "inactive: -28.5%"},
      {"smiles": "Cc1c(C(=O)O)oc2ccc(S(=O)(=O)Nc3ccccc3)cc12", "Potency": "inconclusive: 79.4 µM [inhibitor, partial curve, poor fit]"},
      {"smiles": "CCOc1c(S(=O)(=O)NC2CC(C)(C)NC(C)(C)C2)ccc(Cl)c1Cl", "Potency": "inconclusive: 44.7 µM [inhibitor, partial curve]"},
      {"smiles": "O=C(O)c1cccnc1SC(F)F", "Potency": "inconclusive: 56.2 µM [inhibitor, partial curve, poor fit]"},
      {"smiles": "O=C(c1ccc(F)c(F)c1)N1CCOc2ccc(CN3CCN(Cc4ccccn4)CC3)cc2C1", "Potency": "inconclusive: 25.1 µM [inhibitor, single point]"},
      {"smiles": "NC(c1ccccc1)c1csc(Nc2ccc(C(F)(F)F)cn2)n1", "note": "(stereo not drawn)", "Potency": "inconclusive: 70.8 µM [inhibitor, partial curve, poor fit]"},
      {"smiles": "O=C(NC1CCCCC1)C(c1cccnc1)N(C(=O)CCl)c1ccc(F)cc1", "note": "(stereo not drawn)", "Potency": "inconclusive: 8.91 µM [inhibitor, full curve, poor fit]"},
      {"smiles": "CCCc1cc(=O)oc2cc(OCC(=O)NCc3cccnc3)ccc12", "activity change, negative = inhibition": "inactive: 7.21%"},
      {"smiles": "Cc1cc2cc(CNC(=O)c3ccc(S(=O)(=O)N4CCCCC4)cc3)ccc2n1C", "Potency": "inconclusive: 39.8 µM [inhibitor, partial curve, poor fit]"},
      {"smiles": "Fc1ccc(CNC(=S)Nc2ccc(OC(F)F)cc2)cc1", "Potency": "inconclusive: 44.7 µM [inhibitor, partial curve, poor fit]"},
      {"smiles": "Cc1ccc(C(C)C)c(OCc2ccc(C(=O)N/N=C/c3ccc(O)c(O)c3)cc2)c1", "Potency": "inconclusive: 44.7 µM [inhibitor, partial curve, poor fit]"},
      {"smiles": "O=C(NCCCc1ccccc1)Nc1ccccc1", "activity change, negative = inhibition": "inactive: -0.695%"},
      {"smiles": "Cc1ccccc1COC(=O)/C=C/c1ccc2ccccc2n1", "activity change, negative = inhibition": "inactive: -17.2%"},
      {"smiles": "Cc1cc2nc(=O)c(/C=C3\\C=Nc4ccccc43)c(N)n2o1", "Potency": "inconclusive: 5.62 µM [inhibitor, partial curve, poor fit]"},
      {"smiles": "O=C(NCCCN1CCOCC1)c1c(O)c2ccccc2[nH]c1=O", "Potency": "inconclusive: 4.47 µM [inhibitor, full curve, poor fit]"},
      {"smiles": "O=C(Nc1cccc(Cl)c1)C1=NO[C@@H]2CN(CCc3ccccc3)C[C@H]12", "Potency": "inconclusive: 44.7 µM [inhibitor, full curve, poor fit]"},
      {"smiles": "CN1CCN(Cc2ccc(OCc3ccccc3)cc2)CC1", "Potency": "inconclusive: 14.1 µM [inhibitor, full curve]"},
      {"smiles": "Cc1ccc(Cc2c(-c3ccc(Cl)cc3)nc3cc(C)ccn23)cc1", "Potency": "inconclusive: 44.7 µM [inhibitor, partial curve, poor fit]"},
      {"smiles": "COc1cccc(-c2nn(C)c3sc(C(=O)NCc4ccc(C)o4)cc23)c1", "Potency": "inconclusive: 31.6 µM [inhibitor, partial curve, poor fit]"},
      {"smiles": "Fc1ccc(CSc2nc3ccccc3s2)cc1", "activity change, negative = inhibition": "inactive: 18.1%"},
      {"smiles": "COc1cccc(NC(=O)C(Nc2ccccc2)c2ccccc2F)c1", "note": "(stereo not drawn)", "activity change, negative = inhibition": "inactive: 0.494%"},
      {"smiles": "O=C(Nc1ccc(SCc2cccnc2)cc1)c1ccc[n+]([O-])c1", "Potency": "inconclusive: 50.1 µM [inhibitor, single point]"},
      {"smiles": "Cc1cccc(-c2nc(CS(=O)CC(=O)NCc3ccc(Cl)cc3)c(C)o2)c1", "note": "(stereo not drawn)", "Potency": "inconclusive: 112 µM [inhibitor, partial curve, poor fit]"},
      {"smiles": "COc1ccccc1-n1cc(C(=O)c2cc(Br)ccc2O)cc(C#N)c1=O", "activity change, negative = inhibition": "inactive: -21.6%"},
      {"smiles": "CCC(C)[C@H](NC(=O)Nc1cc(-c2n[nH]c(=O)c3ccccc23)ccc1C)C(=O)OC", "note": "(stereo partly drawn)", "Potency": "inconclusive: 50.1 µM [inhibitor, partial curve, poor fit]"},
      {"smiles": "Cc1cc(NC(=O)COC(=O)c2nc(-c3ccccc3)oc2C)ccc1N1CCCC1", "Potency": "inconclusive: 31.6 µM [inhibitor, partial curve, poor fit]"},
      {"smiles": "Cc1ccc(-c2nnc(C3CN(C(=O)C4CCCCCC4)CC34CCOCC4)o2)cc1", "note": "(stereo not drawn)", "Potency": "inconclusive: 7.08 µM [inhibitor, full curve, poor fit]"},
      {"smiles": "CC(C)(C)NC(=O)NC(=O)CSc1ncc(C(F)(F)F)cc1Cl", "activity change, negative = inhibition": "inactive: 8.77%"},
      {"smiles": "CC(=O)Nc1cccc(NC(=O)CSc2cn(CC(=O)N3CCOCC3)c3ccccc23)c1", "activity change, negative = inhibition": "inactive: 3.69%"},
      {"smiles": "CC(NC(=O)C1CCCN1S(=O)(=O)c1ccccc1)c1ccccc1", "note": "(stereo not drawn)", "activity change, negative = inhibition": "inactive: 277%"},
      {"smiles": "COC[C@@H]1CN(Cc2cccc(C#N)c2)C[C@H]1C(=O)NC1CC1", "activity change, negative = inhibition": "inactive: 30.8%"},
      {"smiles": "CN(CCc1ccccc1)[C@@H]1[C@H](O)[C@H](CO)O[C@@H]1CNS(=O)(=O)c1cccs1", "activity change, negative = inhibition": "inactive: 4.66%"},
      {"smiles": "Cc1ccc(C2(SCC(N)C(=O)O)c3ccccc3-c3ccccc32)cc1", "note": "(stereo not drawn)", "Potency": "inconclusive: 44.7 µM [inhibitor, partial curve, poor fit]"},
      {"smiles": "CCOC(=O)c1cn(CC)c2cc(N3CCN(C)CC3)c(F)cc2c1=O", "Potency": "inconclusive: 50.1 µM [inhibitor, partial curve, poor fit]"},
      {"smiles": "O=C(NCCc1ccccc1)c1ccc(CSc2nc3cccnc3n2Cc2ccccc2F)cc1", "Potency": "inconclusive: 2 µM [inhibitor, full curve]"},
      {"smiles": "C=CCNC(=O)N1CCOC(CN(CC(C)C)C(=O)c2ccc(C)cc2)C1", "note": "(stereo not drawn)", "activity change, negative = inhibition": "inactive: 3.95%"},
      {"smiles": "COc1ccc2c(c1)CCN=C2Cc1ccc(OC)c(OC)c1", "Potency": "inconclusive: 5.01 µM [inhibitor, full curve, poor fit]"},
      {"smiles": "Cc1ccc(NS(=O)(=O)c2cc(-c3cnc(C)o3)ccc2C)c(Cl)c1", "Potency": "inconclusive: 31.6 µM [inhibitor, partial curve, poor fit]"},
      {"smiles": "CCn1cc(C(=O)NCc2ccco2)c(=O)c2cc(S(=O)(=O)N3CCCCCC3)ccc21", "Potency": "inconclusive: 89.1 µM [inhibitor, partial curve, poor fit]"},
      {"smiles": "COc1cc(CN2CCN(C(=O)CC(C)C)CC2)cc(OC)c1OC", "Potency": "inconclusive: 0.398 µM [inhibitor, full curve, poor fit]"},
      {"smiles": "O=C(CCCn1cnc2ccccc2c1=O)N1CCCC2(CCNCC2)CC1", "Potency": "inconclusive: 25.1 µM [inhibitor, partial curve, poor fit]"},
      {"smiles": "CC(C)C(=O)Nc1ccc(Br)c(Cl)c1", "Potency": "inconclusive: 17.8 µM [inhibitor, full curve, poor fit]"},
      {"smiles": "O=C(Nc1nnc(-c2ccco2)o1)c1ccc(Cl)cc1", "Potency": "active: 25.1 µM"},
      {"smiles": "O=C(N/N=C1/CCS(=O)(=O)c2ccc(F)cc21)c1ccccn1", "activity change, negative = inhibition": "inactive: -1.61%"},
      {"smiles": "COc1cc(C2Nc3cccc4cccc(c34)N2)ccc1O", "Potency": "inconclusive: 44.7 µM [inhibitor, single point]"},
      {"smiles": "CCCC(=O)Nc1nc(-c2c[nH]c3ccccc23)cs1", "Potency": "inconclusive: 17.8 µM [inhibitor, full curve, poor fit]"},
      {"smiles": "COc1ccc(-c2[nH]ncc2C(=O)NCc2cccc(Cl)c2)cc1", "Potency": "inconclusive: 126 µM [inhibitor, partial curve, poor fit]"},
      {"smiles": "O=C(CSc1nc2ccccc2[nH]1)N1c2ccccc2Sc2ccccc21", "activity change, negative = inhibition": "inactive: -13.5%"},
      {"smiles": "CCCNc1c(NC(=O)COc2ccccc2C)c(=O)oc2ccccc12", "Potency": "inconclusive: 79.4 µM [inhibitor, single point]"},
      {"smiles": "CC(C)C(=O)Nc1cccc(-c2cn3ccccc3n2)c1", "activity change, negative = inhibition": "inactive: -18.8%"},
      {"smiles": "CCOC(=O)C1CCCN(c2ncnc3c2oc2ccccc23)C1", "note": "(stereo not drawn)", "Potency": "inconclusive: 50.1 µM [inhibitor, single point]"},
      {"smiles": "Cc1oc2cc(OS(C)(=O)=O)ccc2c(=O)c1-c1ccc(Br)cc1", "activity change, negative = inhibition": "inconclusive: -50% [inhibitor]"},
      {"smiles": "CN(C)CCNC(=S)NCc1cccs1", "activity change, negative = inhibition": "inactive: 0.834%"},
      {"smiles": "CC(C)c1ccc(CN(C(=O)/C=C/c2ccco2)C2CCS(=O)(=O)C2)cc1", "note": "(stereo not drawn)", "Potency": "inconclusive: 44.7 µM [inhibitor, partial curve, poor fit]"},
      {"smiles": "CC(C)CC(=O)N1CCCN(Cc2ccc3c(c2)OCO3)c2ccccc21", "Potency": "inconclusive: 25.1 µM [inhibitor, full curve]"},
      {"smiles": "COCCNC(=O)Cn1nc2c(cc1=O)CCCC2", "activity change, negative = inhibition": "inactive: 20%"},
      {"smiles": "Cc1[nH][nH]c(=O)c1C(c1ccccc1[N+](=O)[O-])C(C#N)C#N", "note": "(stereo not drawn)", "activity change, negative = inhibition": "inactive: -6.9%"},
      {"smiles": "COc1ccc(OC)c(S(=O)(=O)Nc2cc3c4c(c2)CCC(=O)N4CCC3)c1", "Potency": "inconclusive: 89.1 µM [inhibitor, single point]"}
    ]}
  ]
}
